End groups of sequences in plain letters are not given here. Bounds are passed on as bounds.

The nature of this data set: peptide synthesis. Particulars: cyclisation step.
The mark [1] stands for this setting: head-to-tail ring, sequence written open.

EINSTEINHV yielded a cyclisation yield under setting [1] of 20%.

GADSHAKRHHGYKRKFHEKHHSHRGYRSNYLYDNHV displayed a cyclisation yield under setting [1] of 90%.

The substance GGLPVCGETCVGGTCNTPGCTCSWPVCTRDHV showed a cyclisation yield under setting [1] of under 10%.

Under setting [1], GLDSHAKRHHGYKRKFHEKHHSHRGYRSNYLYDNHV came in with a cyclisation yield of 90%.

Substance “GLPDSHEKRHHGYRRKFHEKHHSHREFPFYGDYGSNYLYDNHV” had a cyclisation yield under setting [1] of 90%.

Consider GLPPPIFNHV, for which the cyclisation yield under setting [1] was 50%.

GLPVCGETCVGGTCNTPGCTCSWPVCTRAHV returned a cyclisation yield under setting [1] of under 1%.

GLPVCGETCVGGTCNTPGCTCSWPVCTREHV gave a cyclisation yield under setting [1] of under 1%.

Regarding GLPVCGETCVGGTCNTPGCTCSWPVCTRN*, the cyclisation yield is under 10%.

For GLPVCGETCVGGTCNTPGCTCSWPVCTRNH, the cyclisation yield under setting [1] was under 5%.

GLPVCGETCVGGTCNTPGCTCSWPVCTRNHV came in with a cyclisation yield under setting [1] of over 95%.

For GLPVCGETCVGGTCNTPGCTCSWPVCTRNHVI, the cyclisation yield under setting [1] is on record as over 95%.

Turning to GLPVCGETCVGGTCNTPGCTCSWPVCTRNHVIA, the cyclisation yield under setting [1] is over 95%.

For the substance GLPVCGETCVGGTCNTPGCTCSWPVCTRQHV, the cyclisation yield under setting [1] was under 1%.

Under setting [1], GRCTKSIPPICFPDHV had a cyclisation yield of under 10%.

For the substance GRCTKSIPPICFPNHV, the cyclisation yield under setting [1] is listed as over 95%.

Turning to HLPPPIFNHV, under setting [1], the cyclisation yield came to 50%.

With RVTRPVNHV, under setting [1], the cyclisation yield worked out at 20%.

For “SADSHEKRHHGYRRKFHEKHHSHREFPFYGDYGSNYLYDNHV”, under setting [1], the cyclisation yield is recorded as 90%.

Under setting [1], SLPPPIFNHV displayed a cyclisation yield of 50%.
